# Measured values: PMC6258466
# Results are given in words; binding and its absence hold for the method and conditions named. Binding seen in cells or lysates may run through a third protein. Some binding calls cover weakened binding; strength is not graded here.
# Biological target: AtCPK3CA (constitutive active Arabidopsis thaliana CALCIUM-… PROTEIN KINASE 3, residues 1-342) (Arabidopsis thaliana) (UniProt Q42479)
# Assay: split reporter; BiFC in planta: split YFP fusions (pSITE-BiFC vectors) transiently expressed in N. benthamiana epidermal cells; confocal images (Zeiss LSM 880) at 2 DAI; mean fluorescence intensity at the cell boundary by ImageJ
row,binding,Binder
1,binds,"AtREM1.2 (Arabidopsis thaliana group 1b REMORIN, At3g61260) (protein, UniProt Q9M2D8 1-212) MAEEQKIALESESPAKVTTPAPADTPAPAPAEIPAPAPAPTPADVTKDVAEEKIQNPPPEQIFDDSKALTVVEKPVEEPAPAKPASASLDRDVKLADLSKEKRLSFVRAWEESEKSKAENKAEKKIADVHAWENSKKAAVEAQLKKIEEQLEKKKAEYAERMKNKVAAIHKEAEERRAMIEAKRGEDVLKAEETAAKYRATGIVPKATCGCF"
2,binds,"AtREM1.3 (Arabidopsis thaliana group 1b REMORIN, At2g45820) (protein, UniProt O80837 1-190) MAEEQKTSKVDVESPAVLAPAKEPTPAPVEVADEKIHNPPPVESKALAVVEKPIEEHTPKKASSGSADRDVILADLEKEKKTSFIKAWEESEKSKAENRAQKKISDVHAWENSKKAAVEAQLRKIEEKLEKKKAQYGEKMKNKVAAIHKLAEEKRAMVEAKKGEELLKAEEMGAKYRATGVVPKATCGCF"
3,binds,"StREM1.3 (Solanum tuberosum REMORIN from group 1b, homolog 3) (protein, UniProt P93788 1-198) MAELEAKKVEIVDPAPPAPGPVEAPKEVVADEKAIVAPALPPPAEEKEKPDDSKALVVVETKAPEPADEKKEGSIDRDAVLARVATEKRVSLIKAWEESEKSKAENKAQKKVSAIGAWENSKKANLEAELKKMEEQLEKKKAEYTEKMKNKIALLHKEAEEKRAMIEAKRGEDLLKAEELAAKYRATGTAPKKILGIF"
4,binds,"REM1.3^AAA (phosphodead mutant S74/T86/S91AAA of StREM1.3) (protein, UniProt P93788 1-198) MAELEAKKVEIVDPAPPAPGPVEAPKEVVADEKAIVAPALPPPAEEKEKPDDSKALVVVETKAPEPADEKKEGAIDRDAVLARVAAEKRVALIKAWEESEKSKAENKAQKKVSAIGAWENSKKANLEAELKKMEEQLEKKKAEYTEKMKNKIALLHKEAEEKRAMIEAKRGEDLLKAEELAAKYRATGTAPKKILGIF"
5,binds,"REM1.3^DDD (phosphomimetic mutant S74/T86/S91DDD of StREM1.3) (protein, UniProt P93788 1-198) MAELEAKKVEIVDPAPPAPGPVEAPKEVVADEKAIVAPALPPPAEEKEKPDDSKALVVVETKAPEPADEKKEGDIDRDAVLARVADEKRVDLIKAWEESEKSKAENKAQKKVSAIGAWENSKKANLEAELKKMEEQLEKKKAEYTEKMKNKIALLHKEAEEKRAMIEAKRGEDLLKAEELAAKYRATGTAPKKILGIF"

# Biological target: StREM1.3 (Solanum tuberosum REMORIN from group 1b, homolog 3) (Solanum tuberosum) (UniProt P93788)
# Assay: as above
row,binding,Binder
1,binds,"StREM1.3 (Solanum tuberosum REMORIN from group 1b, homolog 3) (protein, UniProt P93788 1-198) MAELEAKKVEIVDPAPPAPGPVEAPKEVVADEKAIVAPALPPPAEEKEKPDDSKALVVVETKAPEPADEKKEGSIDRDAVLARVATEKRVSLIKAWEESEKSKAENKAQKKVSAIGAWENSKKANLEAELKKMEEQLEKKKAEYTEKMKNKIALLHKEAEEKRAMIEAKRGEDLLKAEELAAKYRATGTAPKKILGIF"
